Data reported in publication PMC10163288.
The list shows a part of the results.

B1: il10ra_site1_sap_9_mot_HHH_b2_03438_af2_000000049_0001_18_34_H_._HHH_b2_07904_0001_0000200033_0000002_0_0001 (protein)
chain: SSSSDVEELYRLLKEINEAVREGDEELFRKLVEELEELIEELGSMLFRIQLEFLERQWKEGSSSS
B2: il10ra_site1_sap_18_mot_HHH_b1_04818_af2_000000063_0001_42_55_H_._HHH_b1_04225_af2_0002_0000100001_0000002_0_0001_af2pred_0001 (protein)
chain: SSSSSRTQEVAELMREALELLNNGDKEEAERVAREALELAEQLNNEVLRIVAEYLERIIGSSSSS
B3: il10ra_site1_sap_17_mot_HHH_b2_05410_000000077_0001_20_37_H_._HHH_b2_08251_af2_0001_0000300013_0000001_0_0001_af2pred_0001 (protein)
chain: SSSSDDEAFEIILRALALARQLNDPETEERLRELARRYLEEGDERLLEEVEELLEELKERSSSSS
B4: il10ra_site1_sap_12_mot_ems_3hM_235_000000244_0001_46_64_H_._HHH_b2_07427_af2_0001_0000200015_0000001_0_0001 (protein)
chain: SSSSSSDLEELLEEIEEAIEEGDEEKAKELIQEALRLAFQNSDEEVLRRVWELAKELASSSSSSS
B5: il10ra_site1_normal_mot_HHH_b2_02337_000000026_0001_38_52_H_._HHH_b2_02790_0001_0000300024_0000001_0 (protein)
chain: SSSSDVEERAQELLEEAEELLKEGDREEFLEVVLEAVRLAHRARDEEILQALWRLVRELRSSSSS
B6: il10ra_site1_normal_mot_HHH_b1_06788_af2_000000238_0001_19_36_H_._HHH_b2_03036_0001_0000200010_0000002_0_af2pred_0001 (protein)
chain: SSSSSEYVKEVEKLLRRVAQLLREGDEEEAKELLKEAREIAEEAGNPILRVIVEFLLRILESSSS
B7: il10ra_site1_sap_18_mot_1cde5897893f3d1588f92be3b001cdf2_0001_af2_000000130_0001_54_65_H_._HHH_b2_02470_af2_0001_0000100008_0000001_0_0001 (protein)
chain: SSSSSSDLARRAYELLREALEIEDEEEREEVLEEAKRLAEEGNNLVLLWAIRYAAERDSSSSSSS
B8: il10ra_site1_normal_mot_HHH_b1_02997_000000220_0001_39_52_H_._HHH_b1_05859_0001_0000100005_0000001_0 (protein)
chain: SSSSDLSHELYELLHEAAELLFNGNPEEAEEVVQEAIELARELGNENALYNAEYLLRQIESSSSS
B9: il10ra_site1_sap_13_mot_d910f416147260c93593610934442136_0001_000000186_0001_34_49_H_._HHH_b1_02998_0002_0000200010_0000002_0_0001 (protein)
chain: SSSSDEVVRRAFELLEEAVKLDAEGNPEEAERILEEAEEVAEEGNNRLLQWQIRWLLELLSSSSS
B10: il10ra_site1_sap_20_mot_HHH_b1_08622_000000192_0001_23_40_H_._HHH_b2_06485_0001_0000100001_0000003_0_0001_af2pred_0001 (protein)
chain: SSSSSEFEEAIKAARESIEHALRLGDDEKVEQALRLLERLARDANDEEAEKFIEEVEELLSSSSS
B11: il10ra_site1_normal_mot_HHH_b2_00479_000000091_0001_1_12_H_._f9c37336de6f1513c893807100b70f62_0001_af2_0001_0000200004_0000001_0_af2pred_dldesign_0_af2pred (protein)
chain: SLEERLREALLKRLPEEEVERALALFRELKAETGDPLAALVALARRLAEEGKPELARVVAEVINE
B12: il10ra_site1_sap_17_mot_HHH_b2_07688_000000045_0001_1_20_H_._HHH_b2_03943_0001_0000300045_0000001_0_0001 (protein)
chain: SSSSDREQRVAELLFEALRAWVEGNPEEAKELLEEARELAEELNDEELEEYIRILEHFVKHSSSS
B13: il10ra_site1_sap_18_mot_HHH_b2_05454_000000273_0001_1_18_H_._HHH_b2_05244_0001_0000200012_0000001_1_0001 (protein)
chain: SSSSDLRREVYKLLREIVELDHEGDPEEAKKLVEEAQELIEEANDWLLRFVLEHLERIIDSSSSS
B14: il10ra_site1_normal_mot_HHH_b2_02354_af2_000000157_0001_40_56_H_._HHH_b1_03315_af2_0001_0000200024_0000002_0 (protein)
chain: SSSSEQEVSRLIEEIMRLIKEGDEEEARELLEKAKEIAEELGDENLKFILKSLELALEQLFSSSS
B15: il10ra_site1_sap_14_mot_HHH_b1_08411_af2_000000053_0001_1_20_H_._HHH_b1_08108_0001_0000200028_0000001_0_0001 (protein)
chain: SSSSSSDEYREAYELIEEAFHIEDEEEARELLEEAKELAERAGNWALRFAIQLLLEDLSSSSSSS
B16: il10ra_site1_sap_27_mot_HHH_b1_02492_000000051_0001_1_21_H_._HHH_b1_05859_0001_0000300036_0000001_0_0001 (protein)
chain: SSSSDLEELYELSRRAAELDSEGNPEEAQEVLEEAERIAEEAGDRLFLLQLRFLLKMIRGSSSSS
B17: il10ra_site1_sap_17_mot_e1dd4851c59bc1cdde016f988f6856bd_0001_1_000000200_0001_16_31_H_._HHH_b1_07157_0001_0000100004_0000001_1_0001 (protein)
chain: DEEKEEELIELIAEALGVPPEVVELALERQREQAGDPRQALEAIAASAWLSAPPELQKKLEEALK
B18: il10ra_site1_normal_mot_HHH_b2_06857_af2_000000179_0001_42_54_H_._HHH_b2_04986_af2_0001_0000100001_0000001_0 (protein)
chain: SSSSTEAMRELYELLRRLAEAAHNGDEERVEEIAEEAERIAKELGNELTLFQIRFALRTVLSSSS
B19: il10ra_site1_sap_20_mot_HHH_b2_05797_000000294_0001_1_19_H_._HHH_b1_03030_0001_0000300027_0000001_0_0001 (protein)
chain: SSSSDEVSRRVMELLEEALELDQNGDREEAEELAREAEELAQEANNPQLLRAVEYLLRSINSSSS
B20: il10ra_site1_normal_mot_HHH_b2_00345_af2_000000013_0001_42_56_H_._HHH_b2_01857_0001_0000100002_0000002_0 (protein)
chain: SSSSSDEEEEEVEELLEEAKHIEDHEKRLEILLEATHLALRAQDPELVQLVWEVFRRLIESSSSS
B21: il10ra_site1_normal_mot_HHH_b2_08186_000000021_0001_43_56_H_._HHH_b2_07428_af2_0001_0000500009_0000001_0 (protein)
chain: SSSSSDEEEVEELLEEAEELVKRGNPEEALELLLKALQIAFRISNAELLQKIWEVLQKLRSSSSS
B22: il10ra_site1_normal_mot_HHH_b2_00984_000000042_0001_1_20_H_._HHH_b1_07305_0001_0000100009_0000001_0 (protein)
chain: SSSSSDEEELERLLEELEELVERNDRERFLRLVQELIRLAIRLSDPEILQRLWELIRRFASSSSS
B23: il10ra_site1_sap_17_mot_HHH_b2_00076_000000055_0001_40_55_H_._HHH_b2_01555_0001_0000200016_0000002_0_0001 (protein)
chain: SSSADEVSHLLIQAYALANQIGDPELRKIVEKLAQIAAEARANNDEEKLEEVAEELEEFLKEVSS
B24: il10ra_site1_sap_12_mot_HHH_b2_05343_000000235_0001_19_35_H_._HHH_b1_05240_0001_0000400031_0000001_1_0001 (protein)
chain: SSSSSSTEELFELIEELAKLVRENDEERAEEILERIEELAKELNNRLFEIQARFLFRRLESSSSS
B25: il10ra_site1_sap_15_mot_HHH_b2_03328_af2_000000127_0001_1_19_H_._HHH_b2_03806_af2_0001_0000400012_0000001_0_0001_af2pred_dldesign_0_af2pred (protein)
chain: SSSSDPLAEIERLVAEARRLLAAGQPDEAAQLLTEAAKLAIELGRPDLAYEISRLLWESLSSSSS
B26: il10ra_site1_sap_23_mot_HHH_b2_00984_000000042_0001_1_20_H_._HHH_b2_02068_af2_0001_0000500019_0000001_0_0001 (protein)
chain: SSSSSDDEEQLKAAAVFLEAALRYGDEEAIEMMTWSLEALAERTNDEEARELVEQAKELLSSSSS
B27: il10ra_site1_normal_mot_HHH_b2_00730_000000084_0001_1_16_H_._HHH_b2_06521_0001_0000500035_0000001_0 (protein)
chain: SSSSSDEEEYLRLSLRFAEQLIENGDPEAARRILRAAFELAERLGDEELLEEVEELLRQLSSSSS
B28: il10ra_site1_normal_mot_HHH_b2_00612_000000251_0001_1_14_H_._HHH_b1_08548_0001_0000300017_0000002_0_af2pred_0001 (protein)
chain: SSSSDEEFERVRKLLEKVSELARNGNPEEAQKVAEEALEVAEEAGNELLRRAVEYLLKLVSSSSS
B29: il10ra_site1_sap_20_mot_HHH_b2_06430_000000048_0001_41_58_H_._HHH_b1_00495_af2_0001_0000900026_0000001_0_0001 (protein)
chain: SSSDTEQRVAELLFRAVELLAKGNPEEAEKLVEEAERLAEELNDPELERYVEILLRFVKAHSSSS
B30: il10ra_site1_sap_22_mot_HHH_b1_03094_000000294_0001_1_20_H_._HHH_b1_03552_af2_0001_0000400024_0000001_0_0001 (protein)
chain: SSSSDEEELVEAAARLVEQALEHGDKESARFHLWAIRLAVEELGDEELERLLEELEELIERSSSS
B31: il10ra_site1_normal_mot_HHH_b2_04646_000000019_0001_1_20_H_._HHH_b2_05789_af2_0001_0000400029_0000001_0 (protein)
chain: SSSSSDEEEAREEAERLLEEAEQIEDRHEVARLLYRASRLAAEGQDDELARRLVKLFARLSSSSS
B32: il10ra_site1_normal_mot_HHH_b2_01705_af2_000000069_0001_44_57_H_._HHH_b1_04218_af2_0001_0000400020_0000001_0 (protein)
chain: SSSSSSDSEELLEEAEELLKEIKDPEERTEVYRKFAEELVELGDREAIERLSELFIRASSSSSSS
B33: il10ra_site1_normal_mot_HHH_b1_02397_af2_000000085_0001_39_57_H_._HHH_b2_06806_af2_0001_0000200014_0000002_0 (protein)
chain: SSSSDEEKEKLEELLKELEELIEEGDQEKFARLVQEVLRLAFKLRDEEVLKAVWELMELFISSSS
B34: il10ra_site1_normal_mot_HHH_b2_04680_000000215_0001_1_16_H_._HHH_b2_01495_0001_0000300034_0000001_0 (protein)
chain: SSSSTEETREAYRLLREAFEFLQRGDPEQARELLEEAERLLEEAGNEAALFSVRLALEALDSSSS
B35: il10ra_site1_sap_16_mot_HHH_b2_01986_af2_000000130_0001_1_18_H_._HHH_b2_06750_0001_0000100006_0000001_0_0001 (protein)
chain: SSSSDEEEQELIEAAKRLARLLIRGNKEEVERLLEEVERLAEELNDERFLKILEDLKRALSSSSS
B36: il10ra_site1_sap_20_mot_HHH_b2_08004_000000101_0001_1_17_H_._HHH_b2_06414_af2_0001_0000200009_0000001_0_0001_af2pred_0001 (protein)
chain: SSSSDVREEVEELFEEAQELIEKGNPEEALKLVHRMSELAREARDKELARLVLEIAKLLNKSSSS
B37: il10ra_site1_normal_mot_HHH_b1_00999_000000080_0001_41_55_H_._HHH_b2_07269_0001_0000100005_0000001_0 (protein)
chain: SSSSDVEERVEKLLEEAEELAEEGDREEVIRLALEAVQIAFKNNNQELLQLIWEVVKELGSSSSS

Biological target: il10ra, Q13651
Assay: yeast display titration

Apparent Kd, inactive:
B1 no binding seen
B2 no binding seen
B3 no binding seen
B4 no binding seen
B5 no binding seen
B6 no binding seen
B7 no binding seen
B8 no binding seen
B9 no binding seen
B10 no binding seen
B11 no binding seen
B12 no binding seen
B13 no binding seen
B14 no binding seen
B15 no binding seen
B16 no binding seen
B17 no binding seen
B18 no binding seen
B19 no binding seen
B20 no binding seen
B21 no binding seen
B22 no binding seen
B23 > 166 nM
B24 no binding seen
B25 no binding seen
B26 no binding seen
B27 no binding seen
B28 no binding seen
B29 no binding seen
B30 no binding seen
B31 no binding seen
B32 no binding seen
B33 no binding seen
B34 no binding seen
B35 no binding seen
B36 no binding seen
B37 no binding seen

Retrieved one by one from the list above (3):
Apparent Kd, inactive:
B2 no binding seen
B28 no binding seen
B22 no binding seen
